These results are taken from patent US6818049B1, “Environmentally preferred fluids and fluid blends” (ExxonMobil Chemical Patents Inc., priority 1998, dated 2004).

Where two headings read alike, the source gives them in different places.

The conditions of data set [1]: known values from published sources, cited from earlier work.
A short description of data set [2]: Weight average MIR (WAMIR) and ozone formation of solvent blends. Conditions: for Weight % of DMC in Blend with Absolute MIR = 0.45: blend of DMC with the second fluid solvent; for Weight % of Methyl Acetate in Blend with Absolute MIR = 0.45: blend of methyl acetate with the second fluid solvent, minimum methyl acetate content.

For the compound `CC(C)=O` [Acetone], the “MIR / Absolute MIR” value in data set [1] was 0.48.

`CCCCCOC(C)=O` [Amyl Acetate]: the “MIR / Absolute MIR” value in data set [1] is 1.16.

With `CCCCOC(C)=O` [Butyl Acetate], the “MIR / Absolute MIR” value in data set [1] is 1.14; in data set [1] (listed as N-Butyl Acetate), 1.14; in data set [1] (listed as butyl acetate) it was 1.00. The “Weight % of DMC in Blend with Absolute MIR = 0.45” value (shortened to “Weight % of DMC in Blend”) in data set [2] amounted to 65.0 Weight %. Moreover, in data set [2] (blend with DMC), the “Weight % of Second Fluid Solvent in Blend with Absolute MIR = 0.45” value (“Weight % of Second Fluid Solvent” below) was 35.0 Weight %.

In the case of `ClCCl` [CH2Cl2, methylene chloride], the “MIR / Absolute MIR” value in data set [1] is listed as 0.10.

As for `CCCCCCCCCC` [Decane], the “MIR / Absolute MIR” value in data set [1] is 0.93. Further, in data set [2], the “Weight % of DMC in Blend” value came to 56.4 Weight % and the “Weight % of Methyl Acetate in Blend with Absolute MIR = 0.45” value (“Weight % of Methyl Acetate in Blend” for short) is listed as 59.3 Weight %. In addition, the “Weight % of Second Fluid Solvent” value in data set [2] (blend with DMC) is given as 43.6 Weight %. The “Weight % of Second Fluid Solvent” value in data set [2] (blend with methyl acetate) came to 40.7 Weight %.

With `CC(=O)CC(C)(C)O` [Diacetone Alcohol], the “MIR / Absolute MIR” value in data set [1] was 0.96. For the same compound, the “Weight % of Methyl Acetate in Blend” value in data set [2] was determined as 60.7 Weight %. Besides, the “Weight % of Second Fluid Solvent” value in data set [2] (blend with methyl acetate) worked out at 39.3 Weight %.

Regarding `CC(C)OC(=O)OC(C)C` [Diisopropyl Carbonate], in data set [2], the “Weight % of DMC in Blend” value was determined as 29.6 Weight % and the “Weight % of Methyl Acetate in Blend” value was found to be 32.1 Weight %. The “Weight % of Second Fluid Solvent” value in data set [2] (blend with DMC) stood at 70.4 Weight %. Moreover, the “Weight % of Second Fluid Solvent” value in data set [2] (blend with methyl acetate) is reported as 67.9 Weight %.

In the case of `CCCCCCCCCCCC` [Dodecane], the “MIR / Absolute MIR” value in data set [1] is given as 0.72. In data set [2], the “Weight % of Methyl Acetate in Blend” value is 45.0 Weight %. Also, in data set [2] (blend with methyl acetate), the “Weight % of Second Fluid Solvent” value came to 55.0 Weight %.

For the compound `CC` [Ethane], the “MIR / Absolute MIR” value in data set [1] is 0.35.

As for `CCOC(=O)C(C)(C)C` [Ethyl Pivalate], in data set [2], the “Weight % of DMC in Blend” value was 35.8 Weight % and the “Weight % of Methyl Acetate in Blend” value is given as 38.5 Weight %. The “Weight % of Second Fluid Solvent” value in data set [2] (blend with DMC) is given as 64.2 Weight %. The “Weight % of Second Fluid Solvent” value in data set [2] (blend with methyl acetate) turned out to be 61.5 Weight %.

For the compound `CCOC(=O)CC` [Ethyl Propionate], in data set [1], the “MIR / Absolute MIR” value was 0.86. Moreover, the “Weight % of Methyl Acetate in Blend” value in data set [2] was found to be 55.4 Weight %. In addition, the “Weight % of Second Fluid Solvent” value in data set [2] (blend with methyl acetate) is on record as 44.6 Weight %.

On to `CC(C)COC(=O)C(C)C` [Isobutyl Isobutyrate], for which, in data set [1], the “MIR / Absolute MIR” value is listed as 0.86. Besides, the “Weight % of Methyl Acetate in Blend” value in data set [2] is recorded as 55.4 Weight %. The “Weight % of Second Fluid Solvent” value in data set [2] (blend with methyl acetate) is reported as 44.6 Weight %.

With `CC(C)O` [Isopropanol], the “MIR / Absolute MIR” value in data set [1] is 0.81. The “Weight % of DMC in Blend” value in data set [2] turned out to be 49.2 Weight %. Moreover, in data set [2] (blend with DMC), the “Weight % of Second Fluid Solvent” value is 50.8 Weight %.

With `CC(C)OC(=O)C(C)C` [Isopropyl Isobutyrate], the “MIR / Absolute MIR” value in data set [1] is reported as 0.86. Moreover, the “Weight % of DMC in Blend” value in data set [2] is listed as 52.5 Weight %. The “Weight % of Second Fluid Solvent” value in data set [2] (blend with DMC) is listed as 47.5 Weight %.

For the compound `CC(=O)CC(C)C` [MIBK, methyl isobutyl ketone], in data set [1], the “MIR / Absolute MIR” value is given as 4.68.

`CCCCCC(C)=O` [Methyl Amyl Ketone (MAK), Methyl Amyl Ketone]: in data set [1], the “MIR / Absolute MIR” value is 2.65.

Turning to `CCC(C)=O` [Methyl Ethyl Ketone], the “MIR / Absolute MIR” value is listed as 1.32 in data set [1] and 1.34 in data set [1] (listed as MEK). In addition, the “Weight % of DMC in Blend” value in data set [2] is given as 70.1 Weight %. For the same compound, the “Weight % of Second Fluid Solvent” value in data set [2] (blend with DMC) amounted to 29.9 Weight %.

Consider `CCCCO` [N-Butyl Alcohol], for which the “MIR / Absolute MIR” value in data set [1] and in data set [1] (listed as N-Butanol) was 3.53 in each case.

As for `CCCCCCCCCCCCC` [Tridecane], the “MIR / Absolute MIR” value in data set [1] is on record as 0.66. In data set [2], the “Weight % of Methyl Acetate in Blend” value amounted to 38.9 Weight %. In data set [2] (blend with methyl acetate), the “Weight % of Second Fluid Solvent” value is recorded as 61.1 Weight %.

In the case of `CCCCCCCCCCC` [Undecane], the “MIR / Absolute MIR” value in data set [1] is reported as 0.82. In addition, the “Weight % of Methyl Acetate in Blend” value in data set [2] worked out at 52.9 Weight %. Besides, the “Weight % of Second Fluid Solvent” value in data set [2] (blend with methyl acetate) is on record as 47.1 Weight %.

`CC(=O)O` [acetic acid]: the “MIR / Absolute MIR” value in data set [1] is reported as 0.67.

As for `COC(=O)CCC(=O)OC` [dimethyl succinate], in data set [1], the “MIR / Absolute MIR” value is on record as 0.20.

For `C=C(C)C` [isobutylene], in data set [1], the “MIR / Absolute MIR” value is reported as 6.81.

For the compound `COC(C)=O` [methyl acetate], the “MIR / Absolute MIR” value in data set [1] is recorded as 0.12.

`Cc1ccc(C)cc1` [p-xylene]: in data set [1], the “MIR / Absolute MIR” value is 4.40.

On to `CC1COC(=O)O1` (centres unmarked) [propylene carbonate], for which the “MIR / Absolute MIR” value in data set [1] is 0.43.

As to `CC(=O)OC(C)(C)C` [t-butyl acetate], the “MIR / Absolute MIR” value in data set [1] is on record as 0.21.

As for `CC(C)(C)O` [tertiary butanol], in data set [1], the “MIR / Absolute MIR” value is given as 0.40.
